Test results reported in the supplement of paper PMC10849652.
Some of the results follow.

The chains behind the UniProt entries cited, without tags or fusion partners. Where a name states a change or a piece, a line headed by the entry shows the natural chain unless it says otherwise.
UniProt Q5VUJ9: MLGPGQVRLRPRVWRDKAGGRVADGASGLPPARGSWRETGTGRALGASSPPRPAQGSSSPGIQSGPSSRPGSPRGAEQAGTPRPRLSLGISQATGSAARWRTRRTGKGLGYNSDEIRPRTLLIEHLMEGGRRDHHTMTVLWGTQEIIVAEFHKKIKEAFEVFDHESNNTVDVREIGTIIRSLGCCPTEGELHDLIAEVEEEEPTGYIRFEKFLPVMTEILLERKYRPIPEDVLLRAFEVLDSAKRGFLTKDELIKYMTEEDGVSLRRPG
UniProt Q9H4G0, whole entry, looked up: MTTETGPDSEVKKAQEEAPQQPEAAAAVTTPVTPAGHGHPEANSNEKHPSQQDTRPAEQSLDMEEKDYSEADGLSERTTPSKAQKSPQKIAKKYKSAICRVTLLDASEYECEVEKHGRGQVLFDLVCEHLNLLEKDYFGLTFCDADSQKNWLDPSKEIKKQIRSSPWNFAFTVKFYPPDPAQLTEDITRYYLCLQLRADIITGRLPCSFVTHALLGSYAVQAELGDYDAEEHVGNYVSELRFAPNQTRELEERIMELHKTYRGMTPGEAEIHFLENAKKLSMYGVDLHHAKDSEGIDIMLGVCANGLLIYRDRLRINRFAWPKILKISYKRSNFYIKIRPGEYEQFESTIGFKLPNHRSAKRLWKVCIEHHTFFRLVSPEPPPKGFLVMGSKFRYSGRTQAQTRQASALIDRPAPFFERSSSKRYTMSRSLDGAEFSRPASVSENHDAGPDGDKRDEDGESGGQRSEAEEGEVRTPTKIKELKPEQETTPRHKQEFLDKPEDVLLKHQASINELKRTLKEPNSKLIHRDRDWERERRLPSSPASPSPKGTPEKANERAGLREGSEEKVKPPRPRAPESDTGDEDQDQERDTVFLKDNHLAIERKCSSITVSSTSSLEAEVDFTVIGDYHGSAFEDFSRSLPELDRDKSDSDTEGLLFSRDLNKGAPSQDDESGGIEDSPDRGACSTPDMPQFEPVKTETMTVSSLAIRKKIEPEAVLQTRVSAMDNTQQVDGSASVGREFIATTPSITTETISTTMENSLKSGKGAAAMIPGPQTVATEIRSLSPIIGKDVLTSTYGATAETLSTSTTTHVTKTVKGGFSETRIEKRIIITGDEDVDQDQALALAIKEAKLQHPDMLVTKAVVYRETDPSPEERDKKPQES
UniProt O75355: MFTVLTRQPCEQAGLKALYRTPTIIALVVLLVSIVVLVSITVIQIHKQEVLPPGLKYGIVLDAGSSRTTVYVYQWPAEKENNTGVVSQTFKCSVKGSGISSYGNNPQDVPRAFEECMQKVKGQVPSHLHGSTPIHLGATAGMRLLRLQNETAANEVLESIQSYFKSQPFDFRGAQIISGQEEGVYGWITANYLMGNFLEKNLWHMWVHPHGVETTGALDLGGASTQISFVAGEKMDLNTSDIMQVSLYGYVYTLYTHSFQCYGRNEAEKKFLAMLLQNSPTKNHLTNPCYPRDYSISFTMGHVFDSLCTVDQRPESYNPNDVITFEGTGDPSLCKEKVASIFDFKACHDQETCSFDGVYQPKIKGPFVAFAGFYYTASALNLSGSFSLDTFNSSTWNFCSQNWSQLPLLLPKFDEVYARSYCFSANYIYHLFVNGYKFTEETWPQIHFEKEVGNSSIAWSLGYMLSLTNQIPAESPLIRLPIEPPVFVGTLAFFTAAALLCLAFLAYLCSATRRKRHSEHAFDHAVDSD
UniProt P19419: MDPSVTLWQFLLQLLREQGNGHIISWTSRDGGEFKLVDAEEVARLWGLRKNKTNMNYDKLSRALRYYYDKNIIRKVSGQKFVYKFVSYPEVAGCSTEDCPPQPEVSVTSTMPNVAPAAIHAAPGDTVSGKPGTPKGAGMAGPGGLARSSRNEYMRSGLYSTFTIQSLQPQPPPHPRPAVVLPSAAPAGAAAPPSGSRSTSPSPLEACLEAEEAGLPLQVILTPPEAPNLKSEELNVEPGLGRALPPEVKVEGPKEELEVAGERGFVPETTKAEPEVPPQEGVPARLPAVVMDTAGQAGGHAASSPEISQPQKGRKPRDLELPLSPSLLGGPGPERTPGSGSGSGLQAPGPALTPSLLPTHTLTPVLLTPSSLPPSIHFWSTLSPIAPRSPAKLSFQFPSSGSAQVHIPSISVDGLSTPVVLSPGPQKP
UniProt A1L3X0: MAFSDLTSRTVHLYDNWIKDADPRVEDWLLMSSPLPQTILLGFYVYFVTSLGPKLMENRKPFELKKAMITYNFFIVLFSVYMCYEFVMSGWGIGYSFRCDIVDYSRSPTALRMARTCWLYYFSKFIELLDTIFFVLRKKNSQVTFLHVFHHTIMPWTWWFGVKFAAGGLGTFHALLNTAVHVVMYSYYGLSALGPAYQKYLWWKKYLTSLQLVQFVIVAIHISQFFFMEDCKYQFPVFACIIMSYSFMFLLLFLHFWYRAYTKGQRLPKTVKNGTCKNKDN
UniProt Q04637, whole entry, looked up: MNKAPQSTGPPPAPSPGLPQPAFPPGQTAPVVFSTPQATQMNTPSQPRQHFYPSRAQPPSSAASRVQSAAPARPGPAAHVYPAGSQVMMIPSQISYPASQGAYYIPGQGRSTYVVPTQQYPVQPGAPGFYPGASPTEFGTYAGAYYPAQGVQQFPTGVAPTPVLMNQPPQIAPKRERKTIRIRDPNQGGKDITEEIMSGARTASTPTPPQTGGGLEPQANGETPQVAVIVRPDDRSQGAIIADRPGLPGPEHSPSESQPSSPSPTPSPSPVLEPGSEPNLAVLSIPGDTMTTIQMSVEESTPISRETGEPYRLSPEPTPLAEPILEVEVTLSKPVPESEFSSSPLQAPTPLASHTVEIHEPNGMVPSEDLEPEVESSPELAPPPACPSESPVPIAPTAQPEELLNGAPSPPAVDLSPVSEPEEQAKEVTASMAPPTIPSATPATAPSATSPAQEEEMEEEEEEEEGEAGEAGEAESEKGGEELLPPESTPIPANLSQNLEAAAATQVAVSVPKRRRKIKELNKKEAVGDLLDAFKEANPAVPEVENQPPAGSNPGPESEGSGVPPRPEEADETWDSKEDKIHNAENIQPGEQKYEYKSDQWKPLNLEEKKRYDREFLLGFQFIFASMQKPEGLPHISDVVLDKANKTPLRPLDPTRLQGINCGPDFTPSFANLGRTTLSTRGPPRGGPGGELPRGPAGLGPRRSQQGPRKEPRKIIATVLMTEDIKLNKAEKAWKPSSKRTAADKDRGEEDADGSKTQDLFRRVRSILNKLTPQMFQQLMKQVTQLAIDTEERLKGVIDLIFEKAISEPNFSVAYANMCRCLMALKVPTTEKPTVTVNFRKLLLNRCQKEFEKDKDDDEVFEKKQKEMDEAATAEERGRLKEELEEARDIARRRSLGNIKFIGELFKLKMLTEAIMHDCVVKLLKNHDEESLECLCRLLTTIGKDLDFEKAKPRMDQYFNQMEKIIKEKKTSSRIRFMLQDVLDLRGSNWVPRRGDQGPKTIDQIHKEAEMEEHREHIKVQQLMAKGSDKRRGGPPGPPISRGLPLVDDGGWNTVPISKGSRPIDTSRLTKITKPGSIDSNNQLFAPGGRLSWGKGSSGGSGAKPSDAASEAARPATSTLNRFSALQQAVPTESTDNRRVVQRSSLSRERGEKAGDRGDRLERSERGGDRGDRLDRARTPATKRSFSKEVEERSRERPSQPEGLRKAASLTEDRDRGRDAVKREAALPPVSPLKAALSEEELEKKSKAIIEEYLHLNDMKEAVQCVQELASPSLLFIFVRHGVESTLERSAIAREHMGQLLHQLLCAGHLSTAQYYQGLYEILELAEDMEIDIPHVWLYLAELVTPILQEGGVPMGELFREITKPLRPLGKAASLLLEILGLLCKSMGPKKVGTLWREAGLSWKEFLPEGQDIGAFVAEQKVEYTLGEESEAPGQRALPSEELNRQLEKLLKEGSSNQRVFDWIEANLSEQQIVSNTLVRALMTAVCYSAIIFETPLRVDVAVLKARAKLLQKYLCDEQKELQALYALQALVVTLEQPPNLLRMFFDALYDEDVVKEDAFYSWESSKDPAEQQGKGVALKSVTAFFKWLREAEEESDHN
UniProt Q05BV3: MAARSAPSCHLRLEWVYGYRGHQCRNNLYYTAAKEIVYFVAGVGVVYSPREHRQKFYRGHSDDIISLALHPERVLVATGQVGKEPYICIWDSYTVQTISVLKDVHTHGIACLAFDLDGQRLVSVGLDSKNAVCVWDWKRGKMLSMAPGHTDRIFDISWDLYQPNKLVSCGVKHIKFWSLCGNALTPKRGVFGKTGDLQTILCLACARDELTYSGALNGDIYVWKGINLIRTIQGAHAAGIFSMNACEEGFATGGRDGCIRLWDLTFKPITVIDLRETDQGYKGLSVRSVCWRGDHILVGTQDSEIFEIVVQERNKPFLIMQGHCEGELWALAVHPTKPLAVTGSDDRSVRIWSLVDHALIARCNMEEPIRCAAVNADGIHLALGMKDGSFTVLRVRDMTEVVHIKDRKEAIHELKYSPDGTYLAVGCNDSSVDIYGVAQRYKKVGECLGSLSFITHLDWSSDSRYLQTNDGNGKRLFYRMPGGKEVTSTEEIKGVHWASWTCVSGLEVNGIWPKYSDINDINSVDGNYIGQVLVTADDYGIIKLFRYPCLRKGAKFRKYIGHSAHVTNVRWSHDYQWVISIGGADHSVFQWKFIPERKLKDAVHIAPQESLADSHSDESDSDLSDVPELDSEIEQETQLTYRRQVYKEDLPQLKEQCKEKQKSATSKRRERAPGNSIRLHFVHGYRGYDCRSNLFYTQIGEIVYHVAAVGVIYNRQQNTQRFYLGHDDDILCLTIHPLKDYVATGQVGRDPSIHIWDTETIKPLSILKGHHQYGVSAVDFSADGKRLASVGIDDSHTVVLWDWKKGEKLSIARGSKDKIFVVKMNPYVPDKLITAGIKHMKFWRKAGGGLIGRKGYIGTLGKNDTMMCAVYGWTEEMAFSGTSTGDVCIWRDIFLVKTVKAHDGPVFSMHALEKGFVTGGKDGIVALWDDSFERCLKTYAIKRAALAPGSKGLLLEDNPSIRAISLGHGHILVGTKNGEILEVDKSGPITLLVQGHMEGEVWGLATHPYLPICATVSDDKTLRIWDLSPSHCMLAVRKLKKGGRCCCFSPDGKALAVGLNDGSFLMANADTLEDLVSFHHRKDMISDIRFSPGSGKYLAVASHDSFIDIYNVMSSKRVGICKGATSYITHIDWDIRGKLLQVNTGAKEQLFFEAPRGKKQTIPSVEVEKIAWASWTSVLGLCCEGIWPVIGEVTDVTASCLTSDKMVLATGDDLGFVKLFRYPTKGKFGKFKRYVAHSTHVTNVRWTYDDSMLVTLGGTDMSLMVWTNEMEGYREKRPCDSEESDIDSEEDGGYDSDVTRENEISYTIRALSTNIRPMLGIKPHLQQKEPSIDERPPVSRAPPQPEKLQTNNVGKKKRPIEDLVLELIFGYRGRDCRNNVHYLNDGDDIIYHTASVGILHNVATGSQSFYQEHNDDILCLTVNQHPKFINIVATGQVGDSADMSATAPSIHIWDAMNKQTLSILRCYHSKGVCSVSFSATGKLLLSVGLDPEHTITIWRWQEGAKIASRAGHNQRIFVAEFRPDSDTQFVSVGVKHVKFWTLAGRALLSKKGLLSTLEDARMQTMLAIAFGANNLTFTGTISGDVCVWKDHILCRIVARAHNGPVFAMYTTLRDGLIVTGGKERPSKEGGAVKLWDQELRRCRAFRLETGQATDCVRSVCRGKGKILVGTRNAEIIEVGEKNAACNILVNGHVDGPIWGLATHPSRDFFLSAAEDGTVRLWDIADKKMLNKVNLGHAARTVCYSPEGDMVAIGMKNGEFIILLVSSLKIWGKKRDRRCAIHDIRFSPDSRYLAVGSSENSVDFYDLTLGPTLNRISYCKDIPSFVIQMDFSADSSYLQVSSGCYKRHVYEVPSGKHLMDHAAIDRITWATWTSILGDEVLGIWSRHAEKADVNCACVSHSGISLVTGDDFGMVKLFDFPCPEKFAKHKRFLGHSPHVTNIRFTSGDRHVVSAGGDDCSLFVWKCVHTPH
UniProt Q96C92: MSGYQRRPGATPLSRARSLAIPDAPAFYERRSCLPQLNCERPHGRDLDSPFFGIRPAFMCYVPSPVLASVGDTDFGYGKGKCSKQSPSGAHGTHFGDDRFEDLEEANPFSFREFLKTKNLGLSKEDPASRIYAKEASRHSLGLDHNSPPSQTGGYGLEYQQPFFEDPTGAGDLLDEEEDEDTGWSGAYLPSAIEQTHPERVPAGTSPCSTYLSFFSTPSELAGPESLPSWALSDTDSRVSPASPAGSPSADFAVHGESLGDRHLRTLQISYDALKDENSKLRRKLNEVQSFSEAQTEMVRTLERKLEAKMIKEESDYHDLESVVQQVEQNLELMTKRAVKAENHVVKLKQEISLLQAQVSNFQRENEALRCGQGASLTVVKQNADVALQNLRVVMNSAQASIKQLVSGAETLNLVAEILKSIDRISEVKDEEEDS
UniProt Q9Y3B6: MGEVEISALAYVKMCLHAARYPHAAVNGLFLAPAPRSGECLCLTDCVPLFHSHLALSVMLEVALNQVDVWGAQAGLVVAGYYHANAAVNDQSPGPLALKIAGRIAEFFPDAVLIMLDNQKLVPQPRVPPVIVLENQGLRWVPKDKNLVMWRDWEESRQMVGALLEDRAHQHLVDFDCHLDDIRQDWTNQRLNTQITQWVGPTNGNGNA

How the values were obtained:
Assay in all cases: log2 fold change, soluble protein after heating vs DMSO (PISA); higher = thermal stabilisation; K562 cells, 10 uM, 30 min; active = over 0.2 and 3.5 SD of the protein, either way, in both replicates (recomputed)
[1] = compound: CS(=O)(=O)c1ccc(-c2cnc(N)c(C(=O)Nc3ccccc3)n2)cc1
Method in brief: (§1)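 Aliquots of K562 cells (2×10^6 cells/mL) treated with 10 μM compound for 30 min were heated for 3 min over 48°C-58°C. After pooling and extraction in PBS with 0.5% NP-40 at 4°C, soluble protein from a 21,000xg, 90 min spin was quantified by TMTpro 16plex LC-MS/MS with channel sums equalised. Thermal stability is expressed against control samples, from duplicates, as a log2 fold change.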

[2] = compound: C[C@@H](Oc1cc(-c2cnn(C3CCNCC3)c2)cnc1N)c1c(Cl)ccc(F)c1Cl [crizotinib]
Method in brief: as §1

[3] = compound: C[C@@H]1COCCN1C2=NC(=NC(=C2)C3(CC3)S(=O)(=O)C)C4=C5C=CNC5=CC=C4
Method in brief: as §1

[4] = compound: C[C@H](C1=CC=C(C=C1)C(=O)NC2=C3C=CNC3=NC=C2)N
Method in brief: as §1

[5] = compound: Cc1cc(Nc2cc(CN3CCOCC3)c3nc(C)c(Cc4ccc(Cl)cc4F)n3n2)n[nH]1 [gandotinib]
Method in brief: as §1

[6] = compound: Cc1cc(SCc2sc(-c3ccc(C(F)(F)F)cc3)nc2C)ccc1OCC(=O)O
Method in brief: as §1

[7] = compound: Cc1ccc(-n2nc(C(C)(C)C)cc2NC(=O)Nc2ccc(OCCN3CCOCC3)c3ccccc23)cc1 [doramapimod]
Method in brief: as §1

[8] = compound: Cc1ccc(C(=O)N(CCCN)[C@@H](c2nc3cc(Cl)ccc3c(=O)n2Cc2ccccc2)C(C)C)cc1 [ispinesib]
Method in brief: as §1

[9] = compound: Cc1ccc(NC(=O)c2ccc(CN3CC[C@H](N(C)C)C3)c(C(F)(F)F)c2)cc1Nc1nccc(-c2cncnc2)n1 [bafetinib]
Method in brief: as §1

[10] = compound: Cc1cccc(CC(=O)N2CCc3c2ccc(-c2cn(C)c4ncnc(N)c24)c3F)n1
Method in brief: as §1

[11] = compound: Cc1cn(-c2cc(NC(=O)c3ccc(C)c(Nc4nccc(-c5cccnc5)n4)c3)cc(C(F)(F)F)c2)cn1 [nilotinib]
Method in brief: as §1

[12] = compound: Cc1nc(Nc2n[nH]c3c2CN(C(=O)N[C@H](CN(C)C)c2ccccc2)C3(C)C)c2sccc2n1
Method in brief: as §1

[13] = compound: Cc1nc(Nc2ncc(C(=O)Nc3c(C)cccc3Cl)s2)cc(N2CCN(CCO)CC2)n1 [dasatinib]
Method in brief: as §1

[14] = compound: Cc1ncc(-c2ccnc(Nc3ccc(S(C)(=O)=O)cc3)n2)n1C(C)C
Method in brief: as §1

[15] = compound: Cn1cc(-c2ccc3c(c2)CCN3C(=O)Cc2cccc(C(F)(F)F)c2)c2c(N)ncnc21
Method in brief: as §1

[16] = compound: Cn1cc(-c2ccc3nnc(C(F)(F)c4ccc5ncccc5c4)n3n2)cn1
Method in brief: as §1

[17] = compound: Cn1cncc1[C@@](N)(c1ccc(Cl)cc1)c1ccc2c(c1)c(-c1cccc(Cl)c1)cc(=O)n2C [tipifarnib]
Method in brief: as §1

[18] = compound: FC(F)(F)c1ccc(/C=C/c2nc(COc3ccc(CCCCn4ccnn4)cc3)co2)cc1 [mubritinib]
Method in brief: as §1

[19] = compound: C[C@H](Nc1ncnc2nc[nH]c12)c1cc2cccc(Cl)c2c(=O)n1-c1ccccc1 [duvelisib]
Method in brief: as §1

[20] = compound: Cc1cc(Nc2cc(N3CCN(C)CC3)nc(Sc3ccc(NC(=O)C4CC4)cc3)n2)n[nH]1 [tozasertib]
Method in brief: as §1

Measured: log2 fold change

EHD2 (UniProt Q9NZN4)
inactive: [1] 0 | [2] -0.068 | [3] 0.077 | [4] -0.008 | [5] -0.028 | [6] 0.002 | [7] 0 | [8] -0.007 | [9] -0.051 | [10] 0.008 | [11] -0.062 | [12] 0.01 | [13] -0.112 | [14] 0.003 | [15] 0.012 | [16] -0.031 | [17] -0.028 | [18] -0.061

EFCAB2 (UniProt Q5VUJ9)
inactive: [5] 0.028 | [8] -0.256 | [10] -0.025 | [16] -0.019

EPB41L1 (UniProt Q9H4G0)
inactive: [2] 0.03 | [3] -0.026 | [4] -0.04 | [19] -0.074 | [5] 0.091 | [20] -0.15 | [6] 0.058 | [7] 0.077 | [8] -0.02 | [9] 0.027 | [10] 0.02 | [11] 0.034 | [12] -0.071 | [13] 0.108 | [14] -0.01 | [15] -0.136 | [16] 0 | [17] 0.08 | [18] 0.043

EPB41 isoform 4 (UniProt P11171)
inactive: [5] -0.123 | [20] -0.047 | [8] 0.082 | [9] 0.284 | [10] -0.051 | [16] 0.043 | [17] 0.133 | [18] -0.193

EEF2K (UniProt O00418)
inactive: [3] -0.044 | [4] 0.4 | [5] 0.13 | [8] -0.208 | [10] 0.007 | [15] -0.108 | [16] 0 | [17] -0.092 | [18] -0.371

EIF4H isoform 2 (UniProt Q15056)
inactive: [5] -0.55 | [10] -0.094

EHBP1 (UniProt Q8NDI1)
inactive: [4] 0.158 | [5] 0.015 | [10] -0.154 | [15] -0.076
active: [18] -0.586

EEF1AKMT1 (UniProt Q8WVE0)
inactive: [3] -0.086

ENKD1 (UniProt Q9H0I2)
inactive: [5] 0.002 | [20] -0.202 | [10] 0.026 | [17] -0.074

EP400 (UniProt Q96L91)
inactive: [1] -0.092 | [4] 0.186 | [5] -0.007 | [10] -0.106 | [15] -0.109 | [18] -0.182

EIF2AK3 (UniProt Q9NZJ5)
active: [15] 0.845
inactive: [2] -0.062 | [3] 0.181 | [4] 0.109 | [5] -0.113 | [6] 0.188 | [7] 0.032 | [9] 0.082 | [10] 0.535 | [11] -0.201 | [12] -0.072 | [13] -0.017 | [14] -0.067 | [17] -0.057 | [18] 0.019

EIF4B (UniProt F8VP89)
inactive: [2] -0.055 | [4] -0.041 | [5] 0.117 | [7] -0.085 | [8] 0.019 | [9] 0.028 | [10] -0.353 | [11] 0.024 | [12] -0.122 | [14] -0.138 | [15] 0.166 | [16] -0.125 | [17] 0.172 | [18] -0.018

EIF5A2 (UniProt Q9GZV4)
inactive: [4] -0.02 | [19] 0.095 | [6] 0.193 | [8] 0.023 | [9] 0.002 | [13] -0.038 | [15] 0.062 | [16] 0.013 | [18] 0.011

EEF1D isoform 3 (UniProt P29692)
inactive: [18] -0.014

ELP5 isoform 2 (UniProt Q8TE02)
inactive: [17] 0.101

ENTPD3 (UniProt O75355)
inactive: [2] -0.043 | [7] 0.578 | [17] 0.03

EIF3I (UniProt Q5TFK1)
inactive: [2] -0.024 | [4] -0.036 | [19] 0 | [20] -0.054 | [6] -0.01 | [7] 0.066 | [8] 0.023 | [13] -0.27 | [15] 0.003 | [16] 0.169

ELOA (UniProt Q14241)
inactive: [3] -0.088 | [5] 0.208 | [10] -0.117 | [18] 0.42

EIF2B4 (UniProt Q9UI10)
inactive: [2] -0.07 | [3] 0.048 | [4] 0.017 | [19] -0.043 | [5] 0.204 | [20] -0.098 | [6] 0.188 | [7] -0.012 | [9] 0.183 | [10] 0.083 | [13] 0.194 | [15] -0.05 | [17] 0.007 | [18] 0.175

ENO3 (UniProt K7EKN2)
inactive: [19] 0.119 | [6] 0.085 | [8] -0.234 | [13] -0.249 | [16] 0.04

ELAVL4 (UniProt P26378)
inactive: [2] 0.062 | [4] 0.105 | [5] 0.154 | [20] 0.116 | [7] -0.121 | [8] -0.003 | [9] 0.084 | [10] -0.053 | [11] 0 | [12] -0.026 | [14] 0.147 | [15] -0.087 | [16] -0.286

EIF5A (UniProt I3L397)
inactive: [8] -0.189 | [16] -0.137

ELK1 (UniProt P19419)
inactive: [2] 0.024 | [5] -0.285 | [7] 0.167 | [10] 0.268

EIF4E3 (UniProt Q8N5X7)
inactive: [2] 0.019 | [7] -0.063 | [8] 0.065 | [16] -0.014

ENPP2 isoform 2 (UniProt Q13822)
inactive: [3] 0.08 | [9] -0.177

EIF3E (UniProt E5RIT4)
inactive: [3] -0.059

ELOVL7 (UniProt A1L3X0)
inactive: [3] 0.088 | [4] 0.037 | [6] 0.025 | [13] -0.088 | [15] -0.057

EIF4G1 (UniProt Q04637)
inactive: [4] 0.184 | [5] -0.082 | [6] 0.227 | [10] 0.017 | [13] -0.191 | [15] -0.032

ELMO2 (UniProt Q96JJ3)
inactive: [19] 0.125 | [6] -0.023 | [8] 0.029 | [13] -0.021 | [16] 0.069

Reprinted from the entries so far (2 entries):
ENPP2 isoform 2 (UniProt Q13822)
inactive: [3] 0.08 | [9] -0.177

EIF3E (UniProt E5RIT4)
inactive: [3] -0.059

Additional entries

EPB41, A0A2R8Y783
inactive: [2] -0.091 | [19] 0.002 | [6] 0.179 | [7] -0.1 | [11] 0.033 | [12] -0.003 | [13] 0.154 | [14] -0.044

EML5 isoform 5 (UniProt Q05BV3)
inactive: [2] -0.145 | [4] -0.06 | [19] 0.024 | [20] -0.048 | [6] 0.058 | [7] 0.02 | [8] 0.023 | [9] 0.069 | [11] -0.202 | [12] 0.058 | [13] -0.337 | [14] -0.143 | [15] 0.21 | [16] 0 | [17] -0.101 | [18] -0.046

EEF1AKMT2 (UniProt Q5JPI9)
inactive: [1] -0.085 | [9] 0.234 | [18] -0.229

ENAH (UniProt Q8N8S7)
inactive: [5] -0.056 | [10] -0.194

ENTR1 (UniProt Q96C92)
inactive: [6] 0.048 | [13] 0.003 | [17] 0.259

EP400P1 isoform 6 (UniProt Q6ZTU2)
inactive: [19] 0.303 | [20] 0.197 | [6] 0.021 | [8] 0.054 | [13] -0.16 | [16] -0.061

EMC9 (UniProt Q9Y3B6)
inactive: [11] -0.105 | [12] -0.13 | [14] 0.028
